We go through one molecule from paper PMC3807668, “Structure of the CRISPR Interference Complex CSM Reveals Key Similarities with Cascade” (Molecular Cell, 2013).

Test [1] addresses T1, Sso1426 (S. solfataricus (endogenous in S. solfataricus)) (UniProt Q97YA6).
T1 sequence (chain, methylation (residues not printed)): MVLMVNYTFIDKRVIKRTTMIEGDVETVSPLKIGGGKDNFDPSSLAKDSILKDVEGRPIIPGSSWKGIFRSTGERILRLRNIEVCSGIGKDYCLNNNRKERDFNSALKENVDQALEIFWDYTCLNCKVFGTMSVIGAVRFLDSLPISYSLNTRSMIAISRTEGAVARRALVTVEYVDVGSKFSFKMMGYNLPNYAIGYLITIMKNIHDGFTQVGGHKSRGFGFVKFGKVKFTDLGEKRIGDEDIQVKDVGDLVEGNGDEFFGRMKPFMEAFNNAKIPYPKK
Put plainly: cross-linking; purified CSM complex (1 ug/ul) with a 1:1 mixture of d4 and d0 BS3, 1 hr at room temperature; cross-linked peptides found by MS (MassMatrix) and validated by hand; both purified.

Test [2] concerns the target T2, Sso1432 (S. solfataricus (endogenous in S. solfataricus)) (UniProt Q97YA0).
T2 sequence (chain, methylation (residues not printed)): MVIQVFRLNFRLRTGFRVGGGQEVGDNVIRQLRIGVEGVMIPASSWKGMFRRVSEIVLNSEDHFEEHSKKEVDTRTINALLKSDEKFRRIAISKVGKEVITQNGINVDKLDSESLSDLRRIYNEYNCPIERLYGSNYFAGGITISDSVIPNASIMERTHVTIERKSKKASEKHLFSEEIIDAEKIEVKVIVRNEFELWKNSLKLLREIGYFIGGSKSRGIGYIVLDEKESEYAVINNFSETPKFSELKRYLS
The description is as above.

No constants are given. Whether binding was seen depends on the method and setting. Some binding calls cover weakened binding; strength is not graded here.

B1: Sso1425 (natural protein, UniProt Q97YA7 1-250, looked up)
chain: MKMSCMDLDVITTVVKIEGKLRNETLLRVGKGKTQDFAEATDNPIIKYRDRPLIPGSSLKGAFRSLVESYTKSLNDSKYYVCDLDDNSCVSCEEKKKDNGIVEGRYCIPCILFGFKDLASRVYILDAIAEKYSISQRTMVAINRVFGGQMPGHLYTLDYVDPGSEFSFMMMIYNLNLIEGEKDWKAKSVEALKFLLATLVREGIFVGARKSVGYGLIKLVDAKVSLYKAPDHLVSPVIVKKLEEVIGTNG
modifications: methylation; phosphorylation (residues not given)
notes: Sso1425, RAMP subunit of the CSM complex of S. solfataricus; also called RAMP subunit; Csm3 paralog; source: endogenous, S. solfataricus PH1-16; co-purified with the tagged subunit (HisTrap, monoQ, gel filtration)
For the molecule B1, the binding entry in test [1] and in test [2] was “binds” in each case.
